Experimental data: the supplement of paper PMC11060735
Structures can show the parent of a compound that is named as a salt. ± gives the standard deviation of the averaged measurements. Whole data set: some 1,800 compounds, median “GFP- (p16Ink4a-) cell count relative to negative-control wells” near 0.99, cut for the lowest 2% near 0.5. Some of the results follow.

These compounds were tested on mouse p16Ink4a+/- lung fibroblasts (INKBRITE, bleomycin-injured) (assay: GFP- (p16Ink4a-) cell count relative to negative-control wells (fold of vehicle); higher = more p16Ink4a- cells surviving). Settings: 1 µM; 3 days.

Compound	GFP-
CCOC(=O)Nc1ccc(NCc2ccc(F)cc2)nc1N [Flupirtine]	0.964
CN(C)c1cc(NC(=O)CNC(C)(C)C)c(O)c2c1C[C@H]1C[C@H]3[C@H](N(C)C)C(=O)C(C(N)=O)=C(O)[C@@]3(O)C(=O)C1=C2O [Tigecycline]	1.11
CC1=C(/C=C/C(C)=C\C=C\C(C)=C/C(=O)O)C(C)(C)CCC1 [Isotretinoin]	1.17
Cc1c(C(=O)NN2CCCCC2)nn(-c2ccc(Cl)cc2Cl)c1-c1ccc(I)cc1	1.06
C[C@]12CCC(=O)C=C1CC[C@@H]1[C@@H]2[C@@H](O)C[C@@]2(C)[C@H]1CC[C@]2(O)C(=O)CO [Hydrocortisone]	0.999
O=C(CCCN1CCC(O)(c2ccc(Cl)cc2)CC1)c1ccc(F)cc1 [Haloperidol]	1.05
OCCN1C[C@H](O)[C@@H](O)[C@H](O)[C@H]1CO [Miglitol]	0.976
CC(=O)OCC[N+](C)(C)C [Acetylcholine]	0.947
CCOC(=O)[C@H](CCc1ccccc1)N[C@@H](C)C(=O)N1[C@H](C(=O)O)C[C@@H]2CCC[C@@H]21 [Ramipril]	1.14
CC(C)CC(=O)Nc1[nH]nc2c1CN(C(=O)C1CCN(C)CC1)C2(C)C	0.877
Nc1nc(Nc2ccc(S(N)(=O)=O)cc2)nn1C(=O)c1c(F)cccc1F	0.672 ± 0.071
CCN(CC)CCCCNc1ncc2cc(-c3cc(OC)cc(OC)c3)c(NC(=O)NC(C)(C)C)nc2n1	0.935
C=C1C[C@@]2(O)O[C@@]3(C[C@H]2C(C)C)[C@@H](C)CC[C@@H]13 [Curcumol]	0.992
CC[C@H](C)C(=O)O[C@H]1C[C@H](O)C=C2C=C[C@H](C)[C@H](CC[C@@H](O)C[C@@H](O)CC(=O)O)[C@H]21 [Pravastatin]	0.854
COc1cc2c(c(OC)c1OC)-c1c(cc3c(c1OC)OCO3)C[C@@H](C)[C@@H](C)C2 [Schisandrin B]	1.07
C[C@@H]1CN(c2c(F)c(N)c3c(=O)c(C(=O)O)cn(C4CC4)c3c2F)C[C@H](C)N1 [Sparfloxacin]	1.02
Cc1cc(O)nc(S)n1 [Methylthiouracil]	0.955
COc1ccc(COc2cc3oc(=O)c4cc(C(C)O)ccc4c3cc2OC)cc1 (stereo unspecified) [Palomid]	0.926
C[C@H]1[C@H](OC(=O)CCC(=O)O)O[C@@H]2O[C@@]3(C)CC[C@H]4[C@H](C)CC[C@@H]1[C@@]24OO3 [Artesunate]	0.838
Cc1cccc(Nc2ccccc2C(=O)O)c1C [Mefenamic Acid]	1.01
Nc1nccc(Oc2ccc(NC(=O)c3cncc(-c4ccc(F)cc4)c3O)cc2F)c1Cl	0.821
O=S(=O)(c1ccccc1)c1cnc2c(N3CCNCC3)cccc2c1	1
COc1ccc(S(=O)(=O)Nc2cccnc2Nc2ccc(O)cc2)cc1	0.6
CCCc1cc(C(N)=S)ccn1 [Protionamide, Ektebin]	0.983

Compound	GFP-
CC(C)(O)c1ccccc1CC[C@@H](SCC1(CC(=O)O)CC1)c1cccc(/C=C/c2ccc3ccc(Cl)cc3n2)c1 [Montelukast]	1.1
CC(C)(C)C(=O)C(Oc1ccc(Cl)cc1)n1ccnc1 (stereo unspecified) [Climbazole]	0.905
C=CC(C)(O)CC[C@@H]1[C@@]2(C)CCCC(C)(C)C2CC[C@@]1(C)O (stereo partly specified) [Sclareol]	0.685
O=C1CCC(N2C(=O)c3ccccc3C2=O)C(=O)N1 (stereo unspecified) [Thalidomide]	1.2
COc1ccc(C2(C#N)CCC(C(=O)O)CC2)cc1OC1CCCC1 (stereo unspecified) [Cilomilast]	1.13
CC(C)(C)c1cc(NC(=O)Nc2ccc(-c3cn4c(n3)sc3cc(OCCN5CCOCC5)ccc34)cc2)no1 [Quizartinib]	0.936
CC1(C)S[C@@H]2[C@H](NC(=O)Cc3ccccc3)C(=O)N2[C@H]1C(=O)O [Benzylpenicillin]	1.12
CCc1cnn2c(NCc3ccc[n+]([O-])c3)cc(N3CCCC[C@H]3CCO)nc12 [Dinaciclib]	0.383
Cc1cc(=O)oc2c(C=O)c(O)ccc12	0.965
CCOC(=O)c1ncn2c1CN(C)C(=O)c1cc(F)ccc1-2 [Flumazenil]	1.11
COc1ccc(CCc2nc3cc(-c4c(C)noc4C)ccc3n2C[C@H](C)N2CCOCC2)cc1Cl	0.854 ± 0.4
Cc1c[nH]c(-c2cnc(NCCNc3ccc(C#N)cn3)nc2-c2ccc(Cl)cc2Cl)n1	1.14
C=C1CC[C@H](O)C/C1=C/C=C1\CCC[C@]2(C)[C@@H]([C@H](C)CCCC(C)C)CC[C@@H]12 [Cholecalciferol]	0.99
Oc1cc(O)c(Cl)cn1 [Gimeracil]	0.984
Cc1cn([C@H]2C[C@H](N=[N+]=[N-])[C@@H](CO)O2)c(=O)[nH]c1=O [Zidovudine]	1.09
Clc1ccc2c(c1)CCc1cccnc1C2=C1CCNCC1 [Desloratadine]	0.939
C#Cc1cccc(Nc2ncnc3cc(OCCOC)c(OCCO)cc23)c1	0.823
Cc1[nH]nc2ccc(-c3cncc(OC[C@@H](N)Cc4ccccc4)c3)cc12	0.767
O=c1c2ccccc2nc2n1CCc1c-2[nH]c2ccccc12 [Rutaecarpine]	1.09
C=C[C@]1(C)C[C@@H](OC(=O)CS[C@@H]2C[C@H]3CC[C@@H](C2)N3C)[C@]2(C)[C@H](C)CC[C@]3(CCC(=O)[C@H]32)[C@@H](C)[C@@H]1O [Retapamulin]	1
CC(C)(O)CC(=O)NCCn1ccc2ncnc(Nc3ccc(Oc4cccc(C(F)(F)F)c4)c(Cl)c3)c21	1.03
CC(C)C(=O)Oc1ccc(CO)cc1[C@H](CCN(C(C)C)C(C)C)c1ccccc1 [Fesoterodine]	1.22
O=c1c2ccccc2oc2ccccc12 [Xanthone]	1.06
Cc1cnc(NC(=O)Nc2cc(Br)c(C)cc2OC[C@@H]2CNCCO2)cn1	0.93

Compound	GFP-
COC(=O)N[C@H](C(=O)N1CCC[C@H]1c1nc(-c2ccc(-c3ccc(-c4c[nH]c([C@@H]5CCCN5C(=O)[C@@H](NC(=O)OC)C(C)C)n4)cc3)cc2)c[nH]1)C(C)C [Daclatasvir]	1.11
COc1ccc(CNC(=O)Nc2ncc([N+](=O)[O-])s2)cc1 [N-(4-Methoxybenzyl)-N'-(5-Nitro-1,3-Thiazol-2-Yl)Urea]	1.03
O=C(O)c1cc(N=Nc2ccc(O)c(C(=O)O)c2)ccc1O [Olsalazine]	1.15
Cc1onc(-c2ccccc2)c1-c1ccc(S(N)(=O)=O)cc1 [Valdecoxib]	0.879
C=CCc1cc(OC)c(O)c(C(=O)NCCO)c1 [Alibendol]	1.04
Clc1ccc(C(Cn2ccnc2)OCc2ccc(Sc3ccccc3)cc2)c(Cl)c1 (stereo unspecified) [Fenticonazole Nitrate]	1.13
COc1ccccc1N1CCN(CCN(C(=O)C2CCCCC2)c2ccccn2)CC1	0.865
CC(=O)OCC(CCn1cnc2cnc(N)nc21)COC(C)=O [Famciclovir]	1.16
CN1CCC(=C2c3ccccc3C=Cc3ccccc32)CC1 [Cyproheptadine]	0.895
CC[C@@H](C)C[C@@H](C)CCCCCCCCC(=O)N[C@H]1C[C@@H](O)[C@@H](NCCN)NC(=O)[C@@H]2[C@@H](O)CCN2C(=O)[C@H]([C@H](O)CCN)NC(=O)[C@H]([C@H](O)[C@@H](O)c2ccc(O)cc2)NC(=O)[C@@H]2C[C@@H](O)CN2C(=O)[C@H]([C@@H](C)O)NC1=O [Caspofungin Acetate]	1.04
CCC(=O)O[C@]1(C(=O)CCl)[C@@H](C)C[C@H]2[C@@H]3CCC4=CC(=O)C=C[C@]4(C)[C@@]3(F)[C@@H](O)C[C@@]21C [Clobetasol Propionate]	1.02
COCCc1ccc(OCC(O)CNC(C)C)cc1 (stereo unspecified) [Metoprolol]	1.04
CCOC(=O)OC(C)OC1=C(C(=O)Nc2ccccn2)N(C)S(=O)(=O)c2ccccc21 (stereo unspecified) [Ampiroxicam]	1.13
C=CC(=O)Nc1cccc(Sc2nc(Nc3ccc(N4CCN(C)CC4)cc3)ncc2Cl)c1	0.995
CC[C@H]1OC(=O)[C@H](C)[C@@H](O[C@H]2C[C@@](C)(OC)[C@@H](O)[C@H](C)O2)[C@H](C)[C@@H](O[C@@H]2O[C@H](C)C[C@H](N(C)C)[C@H]2O)[C@](C)(OC)C[C@@H](C)C(=O)[C@H](C)[C@@H](O)[C@]1(C)O [Clarithromycin]	0.939
O=C(/C=C\n1cnc(-c2cc(C(F)(F)F)cc(C(F)(F)F)c2)n1)NNc1cnccn1 [Selinexor (KPT-330)]	0.613
O=C(NOC[C@H](O)CO)c1ccc(F)c(F)c1Nc1ccc(I)cc1F	0.846
O=P(O)(O)C(O)(Cn1ccnc1)P(=O)(O)O [Zoledronic Acid]	0.978
CC(=O)O[C@H]1CC[C@@]2(C)C(=CC[C@H]3[C@H]2CC[C@]2(C)C(c4cccnc4)=CC[C@@H]32)C1 [Abiraterone Acetate]	1.13
N[C@@]1(C(=O)O)CS(=O)(=O)[C@H]2[C@H](C(=O)O)[C@H]21	1.01
CC[C@H]1OC(=O)[C@H](C)[C@@H](O[C@H]2C[C@@](C)(OC)[C@@H](O)[C@H](C)O2)[C@H](C)[C@@H](O[C@@H]2O[C@H](C)C[C@H](N(C)C)[C@H]2O)[C@@](C)(O)C[C@@H](C)[C@@H]2N[C@@H](COCCOC)OC([C@H]2C)[C@]1(C)O [Dirithromycin]	1.06
COc1cccc2c1C(=O)c1c(O)c3c(c(O)c1C2=O)C[C@@](O)(C(=O)CO)C[C@@H]3O[C@H]1C[C@H](N)[C@@H](O)[C@H](C)O1 [Epirubicin, Epirubicin Hydrochloride]	0.713
CC[N+](CC)(CC)CCOc1cccc(OCC[N+](CC)(CC)CC)c1OCC[N+](CC)(CC)CC [Gallamine Triethiodide]	1.06

Not a retest: two of the compounds above.
Compound	GFP-
CCOC(=O)OC(C)OC1=C(C(=O)Nc2ccccn2)N(C)S(=O)(=O)c2ccccc21 (stereo unspecified) [Ampiroxicam]	1.13
C=CC(=O)Nc1cccc(Sc2nc(Nc3ccc(N4CCN(C)CC4)cc3)ncc2Cl)c1	0.995
